Source: paper doi:10.1101/2024.10.21.619543
Where two headings read alike, the source gives them in different places. Results are given in words; binding and its absence hold for the method and conditions named. In cells and extracts the contact can be indirect. Here binding means that the protein was enriched with, or labelled near, the bait; the list need not be complete.

The chains behind the UniProt entries cited, without tags or fusion partners.
UniProt Q9C005: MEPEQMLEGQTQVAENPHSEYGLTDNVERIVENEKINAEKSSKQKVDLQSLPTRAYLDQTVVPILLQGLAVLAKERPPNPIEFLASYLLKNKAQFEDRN
UniProt Q99LT0: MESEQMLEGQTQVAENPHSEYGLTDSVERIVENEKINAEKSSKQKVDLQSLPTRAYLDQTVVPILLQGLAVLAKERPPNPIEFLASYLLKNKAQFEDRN

Legend:
Test in all cases: affinity purification with mass spectrometry
[1] = biological target: DPY30 (endogenous, human PDAC cells) (human (endogenous in PATC53 and PATC66)) (UniProt Q9C005)
[2] = biological target: DPY30 (endogenous, human PDAC cells) (human (endogenous in PATC53 and PATC66)) (UniProt Q9C005); remark: listed apart in the source
[3] = biological target: DPY30 (endogenous, mouse KPC cells) (mouse (endogenous in KPC)) (UniProt Q99LT0)

| Binder | binding [1] | binding [2] | binding [3] |
| --- | --- | --- | --- |
| WDHD1 (endogenous, human PDAC cells) (protein, UniProt O75717 1-1129) MPATRKPMRYGHTEGHTEVCFDDSGSFIVTCGSDGDVRIWEDLDDDDPKFINVGEKAYSCALKSGKLVTAVSNNTIQVHTFPEGVPDGILTRFTTNANHVVFNGDGTKIAAGSSDFLVKIVDVMDSSQQKTFRGHDAPVLSLSFDPKDIFLASASCDGSVRVWQISDQTCAISWPLLQKCNDVINAKSICRLAWQPKSGKLLAIPVEKSVKLYRRESWSHQFDLSDNFISQTLNIVTWSPCGQYLAAGSINGLIIVWNVETKDCMERVKHEKGYAICGLAWHPTCGRISYTDAEGNLGLLENVCDPSGKTSSSKVSSRVEKDYNDLFDGDDMSNAGDFLNDNAVEIPSFSKGIINDDEDDEDLMMASGRPRQRSHILEDDENSVDISMLKTGSSLLKEEEEDGQEGSIHNLPLVTSQRPFYDGPMPTPRQKPFQSGSTPLHLTHRFMVWNSIGIIRCYNDEQDNAIDVEFHDTSIHHATHLSNTLNYTIADLSHEAILLACESTDELASKLHCLHFSSWDSSKEWIIDLPQNEDIEAICLGQGWAAAATSALLLRLFTIGGVQKEVFSLAGPVVSMAGHGEQLFIVYHRGTGFDGDQCLGVQLLELGKKKKQILHGDPLPLTRKSYLAWIGFSAEGTPCYVDSEGIVRMLNRGLGNTWTPICNTREHCKGKSDHYWVVGIHENPQQLRCIPCKGSRFPPTLPRPAVAILSFKLPYCQIATEKGQMEEQFWRSVIFHNHLDYLAKNGYEYEESTKNQATKEQQELLMKMLALSCKLEREFRCVELADLMTQNAVNLAIKYASRSRKLILAQKLSELAVEKAAELTATQVEEEEEEEDFRKKLNAGYSNTATEWSQPRFRNQVEEDAEDSGEADDEEKPEIHKPGQNSFSKSTNSSDVSAKSGAVTFSSQGRVNPFKVSASSKEPAMSMNSARSTNILDNMGKSSKKSTALSRTTNNEKSPIIKPLIPKPKPKQASAASYFQKRNSQTNKTEEVKEENLKNVLSETPAICPPQNTENQRPKTGFQMWLEENRSNILSDNPDFSDEADIIKEGMIRFRVLSTEERKVWANKAKGETASEGTEAKKRKRVVDESDETENQEEKAKENLNLSKKQKPLDFSTNQKLSAFAFKQE | binds | binds | – |
| WDHD1 (endogenous, mouse KPC cells) (protein, UniProt P59328 1-1117) MPATQKPMRYGHTEGHTEVCFDDSGSYIVTCGSDGDVRMWEDLDDDDPKSVNVGEKAFSCALKNGKLVTAVSNNTVQVYTFPEGVPDGILTRFTTNANHVVFNGAGNKIAAGSSDFLVKVVDVMDNSQQQTFRGHDAPVLSLSFDPKDIFLASASCDGTVRVWNISDQTCAVSWPVLQKSNDVVNAKSICRLAWQPKAGKLLAVPVEKSVKLYRRETWSNPFDLSDSSISQTLNIVTWSPCGQYLAAGAINGLIVVWNVETKDCMERVKHEKGYAICGLAWHPTCSRICYTDVEGNLGVLENVCDLSGKVSSNKVSSRVEKDYNDLFDGDDTSSAGDFLNDNAVEIPSFSKGIINEDDDNDDIMLAADHDLGDDENSVDVTMLKADLSHKEEGDDDQARSIHNLPLIRPQRPFYDGPMPTPRQKPFQSSSTPLHLSHRFMVWNSVGIIRCYNDDQDSAIDVEFHDTSIHHATHLLNAFNYTMGTLSHEAILLACESADELASKLHCLHFSSWDSSKEWMVDMPQNEDIEAICLGLGWAAAATTALLLRLFTIGGVQKEVFCLPGPVVSMAGHGEQLCIVYHRGTGFDGDQCLGVQLLELGRKKNQVLHGDPLPLTRKSYLTWLGFSAEGTPCYVDSEGCVRMLNRGLGNTWTPVCNIREHCKGKSDHYWVVGIHENPQQLRCIPCKGSRFPPTLPRPAVAILSFKLPYCQTSTEKGQMEEQFWHSVLFHNYLDYLAKNGYDYEESIKNQAVKEQQELLMKMLALSCKLEREFRCVELADLMTQNAVHLAIKYASRSRKLILAQKLSELAAEKAAELAETQSEEEKEEDFREKLNAGYSHTTTEWSRPRVRSQVEDAEDREDTVSEEKPESHNHGQNLFQSANSSDTPALKSGAVFSSSQGWVNPFKVVVSSKEPAVSANSTRSANILDSMNKSSRKSTSLNRMENNEKSPVIKPLTPKPRSKQASAASYFQKRTPQADKTEEVKENPKSSSSDAPAVCLQNSENQRPKTGFQMWLEENRSQILSDNPDISDETDIIKEGMIRFRVLSAEERKAWTNKAKGETASDGAEAKKRKRVVSEICETENQEETVKENLDLSKKQKALNLPANQKLSAFAFKQ | – | – | binds |
